Primary screen of a compound library

Source: ChEMBL document CHEMBL3988442, “University of Dundee, Small-Polar-MMV Screening Library” (2021).

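Growth of Mycobacterium tuberculosis over 3 days (7H9 medium with glucose and tyloxapol); the read-out is not stated. Tested at 500 µM. The record gives no direction; compounds that gave an IC50 in retests scored well above the rest, so higher reads as more growth inhibition. Of about 18,000 compounds tested this way, about 1,400 (7.9%) reached 50% or more in at least one test.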

Each number is a percent effect as filed.
The controls that fix the scale are not given in the record; negative values are as filed.
Compounds were drawn at random from those tested, without regard to their results.

Compound	percent effect
Cc1cnn(CCNCc2cccc3c2OCCO3)c1	21.97
Cc1cccc(CN2CCCC(N(C)C)CC2)n1 (configuration not stated)	26.47
CC1CN(C(=O)N2CCOCC2)c2ccc(F)cc2O1 (configuration not stated)	3.798
c1ccc(O[C@H]2CCNC2)nc1	1.436
CCN(C)S(=O)(=O)N1CCC[C@H]1CO	9.402
O=C(CN1CCn2ccnc2C1)NC1CCS(=O)(=O)C1 (configuration not stated)	-7.213
Cc1[nH]c(=O)[nH]c(=O)c1CCC(=O)Nc1nccs1	10.28
Cc1ncc(S(C)(=O)=O)c(NC2CCOCC2)n1	9.023
N#Cc1ccc(OC2CCC(N)CC2)nc1 (configuration not stated)	-17.7
Cc1nc(CNC(=O)c2cc(C3CC3)[nH]n2)cs1	53.41
Cc1nc(CCNC(=O)C2CNCCO2)sc1C (configuration not stated)	-2.639
NC(=O)NC(=O)Cn1c(C(F)(F)F)nc2ccccc21	-26.81
NC(=O)COc1cccc(CNC(=O)C2CC=CC2)c1	9.449
O=C1c2ccc(Br)cc2C(=O)N1C1CC1	1.955
CCN1CCN(C(=O)C2COc3ccccc3C2)CC1 (configuration not stated)	0.8179
CCCC1c2nccn2CCCN1C(=O)c1cocn1 (configuration not stated)	-2.877
CCC(CNc1ccc2nnnn2n1)N1CCCC1 (configuration not stated)	1.159
COCc1cc(=O)c2cc(F)ccc2[nH]1	-1.143
CCN(CC)S(=O)(=O)N1CCN(CC(N)=O)CC1	11.23
CC1CCC(NC(=O)Cn2cnc(C#N)n2)CC1 (configuration not stated)	58.03
Cc1ccc(NC(=O)CCCc2nc(C)no2)nc1	23.22
CN1C[C@@H]2CN(C(=O)c3cc(C4CC4)on3)C[C@@H]2C1	10.55
Cc1ccc(F)cc1C(=O)NCCNC1CC1	34.79
CCCN1CCC(C(N)=O)CC1	-12.14
O=C(NCCOCC1CCC1)c1ncccc1Br	11.32
CCc1nc(C)c(C(=O)N2CCOCC(O)C2)o1 (configuration not stated)	4.561
Cn1ccc(C(=O)N2CCc3ccccc32)cc1=O	22.66
CCNC(=O)CNc1ccnc2ccc(Br)cc12	5.745
CS(=O)(=O)N1CCCCC1CNC(=O)c1ccccc1 (configuration not stated)	19.18
CN(C)c1cc(CO)ccn1	-9.609
CN(C)CCO[C@@H]1COCC[C@H]1NC1CSCCSC1	14.06
CCOc1cccc(CS(=O)(=O)Cc2ccnn2C)n1	12.98
CCCc1nnc(NCc2ccc(OC)c(O)c2)o1	46.29
Cc1c[nH]c(CN2CCNC[C@H]2C)c(C)c1=O	-5.002
Cc1cccn2cc(CN3CCOCS3(=O)=O)nc12	2.368
COC(=O)C1CN(Cc2ccncc2Cl)CCO1 (configuration not stated)	-3.229
Cn1ncnc1NC(=O)c1ccc(Br)cn1	8.101
COCC(=O)N1CCN(CC2CCCCC2)CC1	10.01
CCNC(=O)N1CCCN(Cc2ccsc2)CC1	21.75
CCCNc1nnc(SC2CCOC2)s1 (configuration not stated)	80.43
O=C(NC1COC2(CCCCC2)C1)c1cnc[nH]1 (configuration not stated)	25.03
CCc1cc(C(=O)NCC(=O)C(C)C)[nH]n1	-2.047
Cc1cc(Br)cnc1N1CCN(C(C)C(N)=O)CC1 (configuration not stated)	46.52
CC(C)(C)NC(=O)c1ccc(CN2CCCC2)cc1	4.095
O=C(CCc1ccco1)Nc1nnc[nH]1	7.276
NC1CCc2nnc(-c3ccccc3)n2C1 (configuration not stated)	9.158
O=C(c1cccc(N2CCOC2=O)c1)N1CCCC1	30.1
Cc1cc2cc(C(=O)N3CCC[C@@H]3C(N)=O)ccc2o1	-0.5285
CC(C(=O)NC1(C#N)CCCCC1)N1CCC(O)CC1 (configuration not stated)	-9.729
COCC(C)NC(=O)CSc1ccc(C(C)=O)cc1F (configuration not stated)	6.522
O[C@H]1CCCc2c(F)cc(F)cc21	6.791
CC(=O)N1CCc2nn(C)c(=O)n2CC1	6.442
CC(C)(C)C(=O)NCC(=O)Nc1ccccn1	17.64
COc1ccc(S(=O)(=O)N2CCCNCC2)cc1	6.919
NS(=O)(=O)C1CCCc2ccccc21 (configuration not stated)	8.907
CNCCNC(=O)C(C)C	4.713
COc1cc(F)c(C(=O)NCC2CCCCO2)c(F)c1 (configuration not stated)	11.56
O=S1(=O)CCN2CCNCC2C1 (configuration not stated)	18.85
COCCC(C)NC(=O)Nc1ccc(C#N)cc1 (configuration not stated)	57.64
Cc1ccc(C)c(C(=O)N2C[C@@H](CO)[C@H](N(C)C)C2)c1	5.915
CC(Sc1nnc(NCC(F)(F)F)s1)C(N)=O (configuration not stated)	13.8
CCCNC(=O)C(C)N(C)CCN1CCCC1=O (configuration not stated)	-1.792
Cc1[nH]c(=O)c(C#N)c(C)c1CCC(=O)NC(C)C	8.06
CCN(CC(C)C#N)C(=O)c1ccc(C)[nH]c1=O (configuration not stated)	-14.49
CC(C)CCNC(=O)CCn1cc(Br)ccc1=O	50.54
CC(C)(CNC(=O)c1ccccn1)N1CC[S+]([O-])CC1	10.15
CN(C)C(CCN)c1ccccc1 (configuration not stated)	8.636
CCOc1ncccc1C(=O)OC(C)C(=O)NC1CC1 (configuration not stated)	7.501
CN1N=C(C(=O)NCc2csc(Br)c2)CCC1=O	78.8
CC(C)NC(C1CCNCC1)[C@H]1C[C@H](O)C1 (some centres not stated)	0.6909
NC(=O)CNc1cccc2ccccc12	18.26
CN(CC(=O)N1CCNC1=O)Cc1ccco1	-9.014
Cc1ccc2oc(C(=O)NC(CO)CO)cc2c1	1.816
O=C(C1CCCN1Cc1ccccn1)N1CCOCC1 (configuration not stated)	-31.02

The first 6 entries again:

Compound	percent effect
Cc1cnn(CCNCc2cccc3c2OCCO3)c1	21.97
Cc1cccc(CN2CCCC(N(C)C)CC2)n1 (configuration not stated)	26.47
CC1CN(C(=O)N2CCOCC2)c2ccc(F)cc2O1 (configuration not stated)	3.798
c1ccc(O[C@H]2CCNC2)nc1	1.436
CCN(C)S(=O)(=O)N1CCC[C@H]1CO	9.402
O=C(CN1CCn2ccnc2C1)NC1CCS(=O)(=O)C1 (configuration not stated)	-7.213